The target in assay [1] is Recombinant monkey OX-40 protein (monkey). Kind of assay: ELISA; plate coated with recombinant monkey OX-40 protein, antibody from 1000 ng/ml in 3-fold dilutions, HRP goat anti-human Fab, OD450. (An ELISA detects its analyte on a solid surface through an enzyme-linked reagent.)
Assay [2] shares this target. The assay can be described thus: ELISA on coated recombinant protein.

No constants are given. Whether binding was seen depends on the method and setting. Binding calls can cover weak binding; strength is not graded here.

B1: AH02913 humanized anti-human OX40 monoclonal antibody (recombinant human IgG1/kappa) (antibody, V domains shown)
VH: QVQLVQSGPEVKKPGASVKVSCKASGYTFTDYSMHWVKQAPGQGLEWMGWISTETGEPTYADDFKGRVTITLDTSASTAYMELSSLRSEDTAVYFCARVRPWYLAVWGQGTLVTVSS
VL: DIQMTQSPSSLSASVGDRVTITCRASQDISNYLNWYQQKPGKAVKLLIYYTSRLYSGVPSRFSGSGSGTDYTFTISSLQPEDIATYFCQQANTLPLTFGGGTKLEIK
For B1, the binding result in assay [1] and in assay [2] was “binds” in each case.

B2: AH02921 humanized anti-human OX40 monoclonal antibody (recombinant human IgG1/kappa) (antibody, V domains shown)
VH: QVQLVQSGPEVKKPGASVKVSCKASGYTFTDYSMHWVRQAPGQGLEWMGWISTETGEPTYADDFKGRFTITLDTSASTAYLEISSLRSEDTAVYFCARVRPWYLTVWGQGTLVTVSS
VL: DIQMTQSPSSLSASVGDRVTITCRASQDISNYLNWYQQKPGKAPKLLIYYTSRLYSGVPSRFSGSGSGTDYTLTISSLQPEDIATYFCQQANTLPLTFGGGTKLEIK
With B2, the binding entry in assay [1] and in assay [2] was “binds” in each case.

B3: AH02919 humanized anti-human OX40 monoclonal antibody (recombinant human IgG1/kappa) (antibody, V domains shown)
VH: QVQLVQSGAEVKKPGASVKVSCKASGYTFTDYSMHWVKQAPGQGLEWMGWISTETGEPTYADDFKGRVTITRDTSASTAYLEISSLRSEDTAVYFCARVRPWYLAVWGQGTLVTVSS
VL: DIQMTQSPSSLSASVGDRVTITCRASQDISNYLNWYQQKPGKAVKLLIYYTSRLYSGVPSRFSGSGSGTDYTLTISSLQPEDIATYYCQQANTLPLTFGGGTKLEIK
B3: the binding entry in assay [1] and in assay [2] was “binds” in each case.

B4: AH02923 humanized anti-human OX40 monoclonal antibody (recombinant human IgG1/kappa) (antibody, V domains shown)
VH: QVQLVQSGAEVKKPGASVKVSCKASGYTFTDYSMHWVRQAPGQGLEWMGWISTETGEPTYADDFKGRFTFTLDTSASTAYLELSSLRSEDTAVYYCARVRPWYLAVWGQGTLVTVSS
VL: DIQMTQSPSSLSASVGDRVTITCRASQDISNYLNWYQQKPGKAVKLLIYYTSRLYSGVPSRFSGSGSGTDYTFTISSLQPEDIATYYCQQANTLPLTFGGGTKLEIK
For the molecule B4, the binding result in assay [1] and in assay [2] was “binds” each time.

B5: AH02916 humanized anti-human OX40 monoclonal antibody (recombinant human IgG1/kappa) (antibody, V domains shown)
VH: QVQLVQSGAEVKKPGASVKVSCKASGYTFTDYSMHWVKQAPGQGLEWMGWISTETGEPTYADDFKGRVTITLDTSASTAYMELSSLRSEDTAVYYCARVRPWYLAVWGQGTLVTVSS
VL: DIQMTQSPSSLSASVGDRVTITCRASQDISNYLNWYQQKPGKAVKLLIYYTSRLYSGVPSRFSGSGSGTDYTFTISSLQPEDIATYFCQQANTLPLTFGGGTKLEIK
For B5, the binding entry in assay [1] and in assay [2] was “binds” in each case.

B6: Chimeric antibody (anti-human OX40, recombinant, human IgG1/kappa constant regions) (antibody, V domains shown)
VH: QIQLVQSGPELKKPGETVKISCKASGYTFTDYSMHWVKQAPGKGLKWMGWISTETGEPTYADDFKGRFAFSLETSASTAYLQIKNLKNEDTASYFCARVRPWYLAVWGAGTTVTVSS
VL: DIQMTQTTSSLSASLGDRVTISCRASQDISNYLNWYQQKPDGTVKLLIYYTSRLYSGVPSRFSGSGSGADYSLTVSNLEQEDIATYFCQQANTLPLTFGAGTKLELK
As to B6, the binding entry in assay [1] and in assay [2] was “binds” in each case.

The record behind these values is patent US20220119540A1 (NANJING GENSCRIPT BIOTECH, published 2022).
